Measured values reported in article PMC4489161.

Sequences of proteins named here, by UniProt entry; tags and fusion partners are left off.
UniProt Q6R327: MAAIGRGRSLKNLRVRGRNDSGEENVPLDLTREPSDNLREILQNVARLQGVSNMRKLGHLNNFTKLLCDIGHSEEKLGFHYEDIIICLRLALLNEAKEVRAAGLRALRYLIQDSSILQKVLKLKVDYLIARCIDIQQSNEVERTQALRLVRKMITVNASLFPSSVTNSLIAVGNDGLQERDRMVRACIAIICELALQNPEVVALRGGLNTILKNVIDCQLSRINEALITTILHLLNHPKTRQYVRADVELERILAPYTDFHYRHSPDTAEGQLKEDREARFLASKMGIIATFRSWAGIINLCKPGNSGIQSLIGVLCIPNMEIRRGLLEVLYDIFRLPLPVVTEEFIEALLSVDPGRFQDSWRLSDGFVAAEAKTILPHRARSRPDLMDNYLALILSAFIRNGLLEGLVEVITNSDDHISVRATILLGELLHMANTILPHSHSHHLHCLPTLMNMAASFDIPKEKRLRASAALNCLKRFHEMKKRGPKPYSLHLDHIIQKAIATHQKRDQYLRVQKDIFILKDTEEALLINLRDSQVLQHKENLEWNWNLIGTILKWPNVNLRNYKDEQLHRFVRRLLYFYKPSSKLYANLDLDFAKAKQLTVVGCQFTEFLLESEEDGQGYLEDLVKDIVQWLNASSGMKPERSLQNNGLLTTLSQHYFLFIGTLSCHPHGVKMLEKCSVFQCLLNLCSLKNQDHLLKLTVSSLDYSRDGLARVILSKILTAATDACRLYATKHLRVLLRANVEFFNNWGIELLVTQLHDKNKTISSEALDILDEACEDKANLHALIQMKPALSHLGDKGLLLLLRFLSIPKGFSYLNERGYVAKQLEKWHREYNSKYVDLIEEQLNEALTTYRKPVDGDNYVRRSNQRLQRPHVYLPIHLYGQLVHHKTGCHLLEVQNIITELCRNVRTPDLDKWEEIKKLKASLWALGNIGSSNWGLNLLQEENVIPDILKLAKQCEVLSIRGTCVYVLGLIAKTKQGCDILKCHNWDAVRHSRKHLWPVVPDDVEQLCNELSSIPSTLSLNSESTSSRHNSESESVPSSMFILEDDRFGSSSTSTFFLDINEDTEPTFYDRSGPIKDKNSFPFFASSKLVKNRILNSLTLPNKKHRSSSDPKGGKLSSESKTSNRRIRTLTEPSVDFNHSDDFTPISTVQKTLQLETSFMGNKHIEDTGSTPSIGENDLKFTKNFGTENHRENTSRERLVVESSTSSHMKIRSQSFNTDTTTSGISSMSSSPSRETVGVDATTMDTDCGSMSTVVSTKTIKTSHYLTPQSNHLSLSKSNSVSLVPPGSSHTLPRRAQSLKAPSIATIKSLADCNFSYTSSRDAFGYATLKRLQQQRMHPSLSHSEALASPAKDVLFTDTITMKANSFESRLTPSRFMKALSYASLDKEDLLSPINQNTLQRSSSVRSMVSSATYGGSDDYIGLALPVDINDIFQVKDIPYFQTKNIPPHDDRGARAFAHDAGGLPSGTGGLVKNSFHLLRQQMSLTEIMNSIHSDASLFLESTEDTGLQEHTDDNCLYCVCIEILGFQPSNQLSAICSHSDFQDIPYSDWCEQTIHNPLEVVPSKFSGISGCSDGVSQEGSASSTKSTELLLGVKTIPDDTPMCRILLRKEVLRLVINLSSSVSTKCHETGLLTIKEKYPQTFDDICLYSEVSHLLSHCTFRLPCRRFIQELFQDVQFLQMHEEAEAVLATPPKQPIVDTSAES
UniProt P35579: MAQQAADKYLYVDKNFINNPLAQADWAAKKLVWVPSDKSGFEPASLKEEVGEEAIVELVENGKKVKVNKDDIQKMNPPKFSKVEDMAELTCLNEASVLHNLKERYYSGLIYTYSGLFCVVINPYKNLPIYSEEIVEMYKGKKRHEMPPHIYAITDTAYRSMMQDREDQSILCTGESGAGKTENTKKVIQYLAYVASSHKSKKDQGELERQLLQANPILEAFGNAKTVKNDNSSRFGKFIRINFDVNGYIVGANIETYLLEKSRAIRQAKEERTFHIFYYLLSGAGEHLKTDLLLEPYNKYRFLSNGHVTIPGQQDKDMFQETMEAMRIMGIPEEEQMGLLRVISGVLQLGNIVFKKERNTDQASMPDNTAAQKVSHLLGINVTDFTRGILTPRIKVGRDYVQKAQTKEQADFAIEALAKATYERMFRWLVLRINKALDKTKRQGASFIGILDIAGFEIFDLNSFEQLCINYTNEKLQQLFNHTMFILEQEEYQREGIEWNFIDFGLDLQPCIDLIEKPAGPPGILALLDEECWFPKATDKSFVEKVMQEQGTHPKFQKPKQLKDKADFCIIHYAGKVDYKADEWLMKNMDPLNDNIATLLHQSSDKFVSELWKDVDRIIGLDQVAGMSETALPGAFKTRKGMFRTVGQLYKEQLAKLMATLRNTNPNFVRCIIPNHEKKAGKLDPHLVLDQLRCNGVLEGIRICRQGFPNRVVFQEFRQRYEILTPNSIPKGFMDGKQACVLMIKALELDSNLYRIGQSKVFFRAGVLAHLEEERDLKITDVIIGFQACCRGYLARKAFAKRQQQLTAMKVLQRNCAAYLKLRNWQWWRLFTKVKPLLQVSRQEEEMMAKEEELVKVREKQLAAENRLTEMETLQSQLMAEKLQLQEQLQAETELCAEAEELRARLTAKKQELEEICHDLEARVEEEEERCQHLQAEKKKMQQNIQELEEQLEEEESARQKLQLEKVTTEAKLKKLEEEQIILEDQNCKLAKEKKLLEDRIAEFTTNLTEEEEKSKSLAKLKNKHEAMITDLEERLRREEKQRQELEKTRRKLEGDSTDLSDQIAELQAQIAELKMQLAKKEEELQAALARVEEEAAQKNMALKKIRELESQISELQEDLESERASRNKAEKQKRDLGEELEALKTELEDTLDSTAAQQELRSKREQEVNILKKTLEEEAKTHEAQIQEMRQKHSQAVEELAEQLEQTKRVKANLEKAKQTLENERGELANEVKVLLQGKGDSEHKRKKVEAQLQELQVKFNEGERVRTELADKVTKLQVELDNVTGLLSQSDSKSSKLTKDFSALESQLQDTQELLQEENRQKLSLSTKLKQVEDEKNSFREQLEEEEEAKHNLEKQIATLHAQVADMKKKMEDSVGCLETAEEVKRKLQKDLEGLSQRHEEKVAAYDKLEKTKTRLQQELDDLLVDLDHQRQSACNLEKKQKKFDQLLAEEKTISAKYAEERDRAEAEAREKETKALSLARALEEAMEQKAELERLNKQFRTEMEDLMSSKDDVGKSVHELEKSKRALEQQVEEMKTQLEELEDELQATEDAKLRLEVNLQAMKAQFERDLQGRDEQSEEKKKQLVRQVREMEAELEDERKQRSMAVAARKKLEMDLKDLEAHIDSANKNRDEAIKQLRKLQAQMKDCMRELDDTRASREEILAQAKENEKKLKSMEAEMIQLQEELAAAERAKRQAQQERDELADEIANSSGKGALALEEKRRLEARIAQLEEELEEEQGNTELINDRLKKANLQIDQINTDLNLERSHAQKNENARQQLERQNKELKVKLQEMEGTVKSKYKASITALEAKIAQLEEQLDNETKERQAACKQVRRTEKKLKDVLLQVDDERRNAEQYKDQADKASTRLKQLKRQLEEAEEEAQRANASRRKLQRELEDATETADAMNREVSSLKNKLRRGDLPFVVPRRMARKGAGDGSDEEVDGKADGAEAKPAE
UniProt P21333: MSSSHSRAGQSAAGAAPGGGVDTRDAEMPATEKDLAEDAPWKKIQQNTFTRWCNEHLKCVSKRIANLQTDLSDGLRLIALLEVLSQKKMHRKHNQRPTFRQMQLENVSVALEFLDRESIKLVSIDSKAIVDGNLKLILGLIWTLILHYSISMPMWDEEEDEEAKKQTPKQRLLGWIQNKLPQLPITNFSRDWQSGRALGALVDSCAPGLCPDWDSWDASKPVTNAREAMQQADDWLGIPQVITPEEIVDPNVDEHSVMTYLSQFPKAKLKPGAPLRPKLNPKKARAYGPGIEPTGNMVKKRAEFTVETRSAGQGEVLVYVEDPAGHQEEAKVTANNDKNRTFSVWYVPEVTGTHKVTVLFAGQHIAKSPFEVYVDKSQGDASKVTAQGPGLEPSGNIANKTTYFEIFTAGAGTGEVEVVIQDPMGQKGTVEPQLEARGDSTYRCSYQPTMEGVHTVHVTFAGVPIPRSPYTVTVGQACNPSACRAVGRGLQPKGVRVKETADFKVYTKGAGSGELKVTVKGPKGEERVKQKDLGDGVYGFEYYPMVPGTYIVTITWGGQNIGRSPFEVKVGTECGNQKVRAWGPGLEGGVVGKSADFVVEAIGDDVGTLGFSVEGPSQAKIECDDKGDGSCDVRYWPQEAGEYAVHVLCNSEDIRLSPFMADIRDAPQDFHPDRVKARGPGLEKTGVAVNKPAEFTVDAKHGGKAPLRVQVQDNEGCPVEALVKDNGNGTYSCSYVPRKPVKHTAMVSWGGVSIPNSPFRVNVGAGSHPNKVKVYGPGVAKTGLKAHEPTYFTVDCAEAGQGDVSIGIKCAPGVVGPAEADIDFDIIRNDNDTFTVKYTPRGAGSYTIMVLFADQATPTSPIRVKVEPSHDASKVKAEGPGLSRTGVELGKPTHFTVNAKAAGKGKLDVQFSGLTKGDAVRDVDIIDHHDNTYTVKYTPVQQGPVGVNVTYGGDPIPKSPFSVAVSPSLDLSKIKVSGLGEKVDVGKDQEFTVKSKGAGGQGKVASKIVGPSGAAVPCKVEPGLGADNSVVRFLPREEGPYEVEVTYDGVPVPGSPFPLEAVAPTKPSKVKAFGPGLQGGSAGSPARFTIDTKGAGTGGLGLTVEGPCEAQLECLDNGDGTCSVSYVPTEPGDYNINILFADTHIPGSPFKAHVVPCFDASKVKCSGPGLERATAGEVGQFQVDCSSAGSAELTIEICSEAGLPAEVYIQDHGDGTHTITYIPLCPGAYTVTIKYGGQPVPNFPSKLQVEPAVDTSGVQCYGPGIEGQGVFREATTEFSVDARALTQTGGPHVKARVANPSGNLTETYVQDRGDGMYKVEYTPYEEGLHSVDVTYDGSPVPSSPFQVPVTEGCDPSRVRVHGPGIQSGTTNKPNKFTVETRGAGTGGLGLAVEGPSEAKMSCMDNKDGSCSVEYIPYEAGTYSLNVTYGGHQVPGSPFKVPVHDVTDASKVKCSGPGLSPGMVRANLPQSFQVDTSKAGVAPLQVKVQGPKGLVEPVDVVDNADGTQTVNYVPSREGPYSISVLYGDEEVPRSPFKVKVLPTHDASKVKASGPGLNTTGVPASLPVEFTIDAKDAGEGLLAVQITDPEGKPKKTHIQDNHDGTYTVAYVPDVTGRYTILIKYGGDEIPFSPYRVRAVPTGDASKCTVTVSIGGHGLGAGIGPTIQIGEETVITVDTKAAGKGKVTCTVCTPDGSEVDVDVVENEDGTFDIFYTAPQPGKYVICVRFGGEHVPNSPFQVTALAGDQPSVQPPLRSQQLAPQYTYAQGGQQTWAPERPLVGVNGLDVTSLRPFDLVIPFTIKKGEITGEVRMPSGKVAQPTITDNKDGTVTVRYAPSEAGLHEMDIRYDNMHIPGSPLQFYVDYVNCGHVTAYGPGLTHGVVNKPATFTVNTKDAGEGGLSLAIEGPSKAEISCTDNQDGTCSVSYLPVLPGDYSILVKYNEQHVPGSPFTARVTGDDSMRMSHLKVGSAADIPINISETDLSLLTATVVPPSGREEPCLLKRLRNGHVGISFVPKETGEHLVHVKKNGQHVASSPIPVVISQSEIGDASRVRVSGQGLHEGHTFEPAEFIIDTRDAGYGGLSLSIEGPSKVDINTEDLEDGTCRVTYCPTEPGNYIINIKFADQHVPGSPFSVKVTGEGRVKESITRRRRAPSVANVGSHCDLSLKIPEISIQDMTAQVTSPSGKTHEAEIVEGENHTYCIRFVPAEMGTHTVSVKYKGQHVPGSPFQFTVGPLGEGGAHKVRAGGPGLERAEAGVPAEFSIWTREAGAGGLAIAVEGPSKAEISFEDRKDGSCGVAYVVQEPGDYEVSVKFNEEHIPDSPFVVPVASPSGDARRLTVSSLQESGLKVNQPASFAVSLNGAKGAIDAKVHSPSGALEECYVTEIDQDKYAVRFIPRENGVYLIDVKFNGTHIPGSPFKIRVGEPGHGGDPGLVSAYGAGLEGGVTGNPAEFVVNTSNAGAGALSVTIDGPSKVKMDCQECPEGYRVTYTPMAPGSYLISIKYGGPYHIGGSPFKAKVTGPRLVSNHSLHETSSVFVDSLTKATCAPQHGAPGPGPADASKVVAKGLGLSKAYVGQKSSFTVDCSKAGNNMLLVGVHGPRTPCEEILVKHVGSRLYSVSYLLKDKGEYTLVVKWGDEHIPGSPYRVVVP

Biological target: FLAG-RICTOR (stably expressed in U87vIII cells) (UniProt Q6R327)
Assay: affinity purification with mass spectrometry; FLAG-RICTOR captured from U87vIII lysate (2 % CHAPS, 50 mM HEPES pH 7.4, 150 mM NaCl) on anti-FLAG M2 magnetic beads, washed with ATP buffer and 300 mM NaCl buffer, eluted with 3X FLAG peptide; bands of the SDS-PAGE gel identified by LC-MS/MS

Substance	binding
Myosin-9 (endogenous, U87vIII cells) (from UniProt P35579 1-1960)	binds
Filamin A (endogenous, U87vIII cells) (from UniProt P21333 1-2647)	binds

No constants are given. Whether binding was seen depends on the method and setting. Binding seen in cells or lysates may run through a third protein. Here binding means that the protein was enriched with, or labelled near, the bait; the list need not be complete.
